Test results taken from publication PMC7778610.
No constants are given. Whether binding was seen depends on the method and setting. In cells and extracts the contact can be indirect. Some results given as binding are weak or reduced against the parent protein; the word gives no strength.

Sequences of proteins named here, by UniProt entry; tags and fusion partners are left off.
UniProt Q9Y5Q3: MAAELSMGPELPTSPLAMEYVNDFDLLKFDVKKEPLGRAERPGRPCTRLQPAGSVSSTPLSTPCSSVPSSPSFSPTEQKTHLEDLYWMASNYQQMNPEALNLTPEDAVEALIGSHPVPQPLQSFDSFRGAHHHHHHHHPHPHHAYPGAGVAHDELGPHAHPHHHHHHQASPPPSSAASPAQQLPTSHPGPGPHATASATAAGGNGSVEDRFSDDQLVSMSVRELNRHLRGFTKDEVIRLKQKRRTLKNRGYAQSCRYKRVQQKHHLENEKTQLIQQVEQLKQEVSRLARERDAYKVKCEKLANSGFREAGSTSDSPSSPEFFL
UniProt Q9Y6Q9: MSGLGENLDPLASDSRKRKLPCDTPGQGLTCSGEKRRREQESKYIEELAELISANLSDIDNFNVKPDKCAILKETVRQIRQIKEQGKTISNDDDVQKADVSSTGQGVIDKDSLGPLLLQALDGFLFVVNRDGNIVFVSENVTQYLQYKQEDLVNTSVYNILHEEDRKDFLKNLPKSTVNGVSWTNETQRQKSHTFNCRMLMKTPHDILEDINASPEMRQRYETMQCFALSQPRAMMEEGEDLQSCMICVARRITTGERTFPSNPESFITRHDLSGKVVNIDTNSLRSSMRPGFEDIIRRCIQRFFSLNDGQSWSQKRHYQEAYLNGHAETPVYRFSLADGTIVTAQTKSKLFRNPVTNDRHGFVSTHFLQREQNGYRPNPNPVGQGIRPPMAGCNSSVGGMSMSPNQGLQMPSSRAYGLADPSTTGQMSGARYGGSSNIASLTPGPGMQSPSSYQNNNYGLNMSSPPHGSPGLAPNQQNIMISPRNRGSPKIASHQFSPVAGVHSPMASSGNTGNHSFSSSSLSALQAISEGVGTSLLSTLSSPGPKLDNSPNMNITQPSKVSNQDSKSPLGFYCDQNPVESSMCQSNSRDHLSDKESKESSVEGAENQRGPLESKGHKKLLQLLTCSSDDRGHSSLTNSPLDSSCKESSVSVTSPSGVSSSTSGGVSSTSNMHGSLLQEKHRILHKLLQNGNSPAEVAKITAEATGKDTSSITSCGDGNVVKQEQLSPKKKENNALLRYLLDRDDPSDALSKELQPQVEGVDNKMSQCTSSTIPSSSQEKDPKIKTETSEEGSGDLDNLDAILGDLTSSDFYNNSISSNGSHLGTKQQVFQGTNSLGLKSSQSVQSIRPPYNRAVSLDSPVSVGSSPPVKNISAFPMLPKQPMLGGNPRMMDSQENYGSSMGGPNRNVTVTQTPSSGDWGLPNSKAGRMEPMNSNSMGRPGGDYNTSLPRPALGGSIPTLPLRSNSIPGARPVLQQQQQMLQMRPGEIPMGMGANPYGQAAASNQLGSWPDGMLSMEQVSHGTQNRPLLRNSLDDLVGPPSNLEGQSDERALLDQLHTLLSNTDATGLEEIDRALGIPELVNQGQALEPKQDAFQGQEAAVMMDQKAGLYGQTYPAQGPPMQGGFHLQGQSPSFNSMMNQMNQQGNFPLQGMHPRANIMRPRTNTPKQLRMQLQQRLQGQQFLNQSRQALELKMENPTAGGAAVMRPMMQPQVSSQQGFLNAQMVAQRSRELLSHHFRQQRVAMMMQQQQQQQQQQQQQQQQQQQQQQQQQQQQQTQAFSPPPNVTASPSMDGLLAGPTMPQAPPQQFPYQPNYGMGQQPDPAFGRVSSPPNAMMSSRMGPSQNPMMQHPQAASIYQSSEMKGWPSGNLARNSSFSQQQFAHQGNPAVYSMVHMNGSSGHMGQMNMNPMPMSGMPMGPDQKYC

How the values were obtained:
[1] = target: MafB (UniProt Q9Y5Q3); assay: co-IP; Flag-AIB1 and MafB plasmids cotransfected into 293T cells, lysed 24 h after transfection; lysates immunoprecipitated with the corresponding antibodies or control IgG; western blotting
[2] = target: GST-MafB (UniProt Q9Y5Q3); assay: pull-down; GST-MafB or GST on glutathione Sepharose 4B beads, lysates of cells overexpressing Flag-AIB1 or the Flag-AD2 domain added; beads washed, western blotting; only the target purified
[3] = target: Flag-tagged AIB1 (amplified in breast cancer 1) (UniProt Q9Y6Q9); assay: co-IP; Flag-AIB1 and MafB plasmids cotransfected into 293T cells, lysed 24 h after transfection; lysates immunoprecipitated with the corresponding antibodies or control IgG; western blotting

Substance: Flag-tagged AIB1 (amplified in breast cancer 1) (from UniProt Q9Y6Q9 1-1424)
- binding [1]: binds
- binding [2]: binds

Substance: MafB (from UniProt Q9Y5Q3 1-323)
- binding [3]: binds
